This is one part of the list. These are further read-outs of the screen, such as a control signal, another cell line or another target. No call is given for them. Most of these compounds were active or inconclusive in the main read-out, so they are no random draw. Potencies come from curve fits of mixed quality, noted in brackets.
Assay: qHTS Assay to Find Inhibitors of Chronic Active B-Cell Receptor Signaling
Conditions: ABC-DLBCL IkBa-CBG/CBR reporter, luminescence ratio (green luciferase fused to IkBa over red control in TMD8 lymphoma cells), 4 h
Method in brief: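 Doxycycline induced both beetle luciferases in TMD8 lymphoma cells; IKK-driven degradation limits the IkappaBalpha-fused green signal, while red luminescence normalises for cell number and nonspecific effects. Compounds tested up to 46 uM, 4 hrs.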

[1] = measured here: CBR red luminescence, cell number
[2] = measured here: IkBa-CBG green luminescence

| Structure (SMILES) | AC50 [1] | AC50 [2] |
| --- | --- | --- |
| COc1cccc(/C=C2/Sc3ccc(C(=O)NCCCN4CCCC4)cc3NC2=O)c1 | 3.16 µM [falling, partial curve, poor fit] |  |
| O=C(Nc1ccccc1)/C(=C/c1ccccc1)c1ccccc1 | 2.82 µM [falling, single point] |  |
| Cc1[nH]nc2c1-c1nc3ccccc3nc1C(C)(C)C2 | 31.6 µM [falling, single point] |  |
| COc1ccc(/C=N/NC(=O)CCn2cnc(-c3ccccc3)c2-c2ccccc2)cc1 |  | 11.6 µM [falling, partial curve] |
| O=C(/C=C/c1cccc(Cl)c1)c1ccc([N+](=O)[O-])o1 | 6.51 µM [falling, partial curve, poor fit] |  |
| Cn1c(NCCc2ccccc2)cc(=O)n(C)c1=O | 1.78 µM [rising, full curve] |  |
| COc1ccc(Cc2nnc(NC(=O)Nc3ccccc3OC)s2)cc1 | 2.51 µM [rising, full curve, poor fit] |  |
| O=[N+]([O-])c1ccc(-n2cc(-c3ccccc3)nn2)cc1 | 0.891 µM [rising, full curve, poor fit] |  |
| Nc1c(NCCN2CCCCC2)c2ccccc2oc1=O | 3.98 µM [falling, partial curve, poor fit] |  |
| O=C(/C=C/c1ccccc1)NC(=S)NNC(=O)c1cnccn1 | 10 µM [falling, partial curve] |  |
| CCCCN(C)CCn1c(=S)[nH]c2ncccc2c1=O | 1.46 µM [falling, full curve, poor fit] |  |
| COC(=O)/C=C/C(=O)Nc1ccc(O)c(Cl)c1 | 23.1 µM [falling, single point] |  |
| CC(=O)Nc1ccccc1C(=O)C(=O)Nc1cccc(C(=O)N2CC(C)CC(C)C2)c1 (stereo not given) | 20 µM [falling, single point] |  |
| CC(=O)c1ccc(N(C(=O)Cc2c[nH]c3ccccc23)C(C(=O)NC2CCCCC2)c2cccs2)cc1 (stereo not given) | 0.794 µM [falling, full curve] |  |
| CCOC(=O)c1c(S(=O)(=O)NCC(=O)Nc2ccc(Cl)c(C(F)(F)F)c2)c(C)n(C)c1C | 35.5 µM [falling, single point] |  |
| COc1cc(OC)cc(C(=O)Nc2ccccc2NC(C)=O)c1 | 29.1 µM [rising, partial curve, poor fit] |  |
| COc1ccc(CCNC(=O)/C=C/c2ccc3ccccc3n2)cc1OC | 15.8 µM [falling, partial curve] |  |
| CCCCNC(=O)CSc1nc(Cc2ccccc2)nc2ccccc12 | 35.5 µM [falling, single point] |  |
| O=C(O)c1cc(O)c2c(c1)[C@@H]([C@H]1c3cc(C(=O)O)cc(O)c3C(=O)c3c(O[C@@H]4O[C@H](CO)[C@@H](O)[C@H](O)[C@H]4O)cccc31)c1cccc(O[C@@H]3O[C@H](CO)[C@@H](O)[C@H](O)[C@H]3O)c1C2=O | 25.9 µM [falling, single point] |  |
| COc1cccc(CNC(=O)CN2C(=O)c3ccccc3S2(=O)=O)c1 | 29.1 µM [falling, single point] |  |
| NC(=O)c1c(NC(=O)Cc2cccs2)sc2c1CCC2 | 10.3 µM [rising, partial curve] |  |
| CN(CC(=O)Nc1ccc(N2CCOCC2)cc1)Cc1cc(=O)n2ccsc2n1 | 10 µM [rising, partial curve] |  |

| Structure (SMILES) | AC50 [1] | AC50 [2] |
| --- | --- | --- |
| CCC(=O)Oc1ccc(-c2cnc3ccccc3n2)cc1 | 1.26 µM [rising, partial curve] | 3.55 µM [rising, full curve, poor fit] |
| CCN1CCN(C(=O)c2ccc3c(c2)N(Cc2ccccc2)C(=O)c2ccccc2S3=O)CC1 (stereo not given) | 35.5 µM [falling, single point] |  |
| O=C(O)CCC(=O)Nc1ccc(/C=C/C(=O)C2CC2)cc1 | 3.16 µM [rising, single point] |  |
| N/C(=N\OC(=O)Cc1cccs1)c1ccc(Br)cc1 | 0.731 µM [rising, full curve, poor fit] |  |
| COc1ccc(/C=C/C(=O)c2cc(Br)ccc(=O)c2O)cc1 | 29.1 µM [falling, single point] |  |
| COc1ccc(OC)c(NC(=O)C2CCC(CNc3c(N4CCOCC4)c(=O)c3=O)CC2)c1 (stereo not given) | 5.01 µM [rising, full curve, poor fit] |  |
| CC1Cc2ccccc2N1C(=O)CSc1nc2ccccc2o1 (stereo not given) | 5.01 µM [rising, single point] |  |
| COc1ccc(CN2CCC(CO)(CCOc3ccccc3)CC2)c(OC)c1C | 22.4 µM [falling, single point] |  |
| CC(C)NC(=O)NC(=O)COC(=O)/C=C/c1ccc2c(c1)OCO2 | 11.2 µM [rising, partial curve, poor fit] |  |
| CC(=O)Nc1cccc(-c2cnc(N)c(C(=O)c3cccnc3)n2)c1 | 5.8 µM [falling, partial curve] |  |
| Cn1c(-c2ccccc2)cnc1NCc1cc2c(cc1[N+](=O)[O-])OCO2 | 32.6 µM [falling, single point] |  |
| CCN(C(=O)CSc1nc2cc(C(=O)OC)ccc2c(=O)n1Cc1ccco1)c1cccc(C)c1 | 2.82 µM [falling, single point] |  |
| Cn1c(C2=C(O)CN(c3ccc4c(c3)OCCO4)C2=N)nc2ccccc21 | 2.82 µM [rising, full curve, poor fit] |  |
| Cc1cc(C(=O)Nc2cccc3ccccc23)n(-c2ccccc2)n1 | 4.47 µM [falling, full curve] |  |
| Cc1ccc(NC(=O)Cn2cnc3cc([N+](=O)[O-])ccc3c2=O)cc1 | 2.82 µM [rising, partial curve, poor fit] |  |
| CNC(=O)/C(C#N)=C/c1c(N2CCCCCC2)nc2c(C)cccn2c1=O | 10 µM [falling, single point] |  |
| c1ccc(C2=Nn3c(nnc3-c3ccco3)SC2)cc1 | 14.1 µM [falling, single point] |  |
| Cc1cc(/C=C2\SC(=S)NC2=O)cc(C)c1O | 0.562 µM [rising, full curve] |  |
| Cn1nnnc1SCC(=O)Nc1ccc(Br)cc1Cl | 18.4 µM [rising, single point] |  |
| COc1ccccc1CNC(=O)C[n+]1ccccc1 | 29.1 µM [falling, single point] |  |
| O=C(NCCc1ccccc1)c1ccccc1NS(=O)(=O)N1CCCC1 | 29.1 µM [rising, single point] |  |
| CC(C)NC(=O)c1ccc2c(=O)n(Cc3ccco3)c(=S)[nH]c2c1 | 3.16 µM [falling, partial curve, poor fit] |  |

| Structure (SMILES) | AC50 [1] | AC50 [2] |
| --- | --- | --- |
| Cc1ccc(NC(=O)CCC(=O)Nc2nnc(C3CCCCC3)s2)cc1 | 3.55 µM [rising, partial curve] |  |
| COc1ccc(S(=O)(=O)NCc2ccccn2)cc1NC(=O)c1ccccc1F |  | 10 µM [falling, partial curve, poor fit] |
| CCOc1ncccc1C(=O)OC(C)C(=O)Nc1ccc(N2CCOCC2)cc1 (stereo not given) | 0.146 µM [rising, partial curve, poor fit] |  |
| O=C(CNC(=O)c1ccc(-c2ccccc2)cc1)Nc1cccc(CO)c1 | 29.1 µM [falling, single point] |  |
| Cc1cc(NC(=O)CSc2nc(-c3ccco3)cc(C(F)(F)F)n2)no1 |  | 10.3 µM [falling, partial curve, poor fit] |
| O=c1c2cn[nH]c2nc(SCc2cc(=O)n3cc(Br)ccc3n2)n1-c1ccc(Br)cc1 | 35.5 µM [falling, single point] |  |
| CNC(=O)c1ccc(-c2nc(-c3ccccc3)cs2)cc1 | 5.62 µM [rising, partial curve] |  |
| Cc1ccc(/C(N)=N/OC(=O)c2cccs2)cc1 | 16.4 µM [falling, single point] |  |
| COc1ccc(S(=O)(=O)N(C)CC(=O)Nc2ccc(C(F)(F)F)cc2)cc1Cl | 29.1 µM [rising, single point] |  |
| CCc1ccc(-n2c(SCC(=O)NC(C)CC)nc3n[nH]c(C)c3c2=N)cc1 (stereo not given) | 12.6 µM [falling, partial curve, poor fit] |  |
| CCOc1ccccc1CNC(=O)C1CCCN(c2nc3ccccc3o2)C1 (stereo not given) | 14.1 µM [falling, partial curve, poor fit] |  |
| CCCOc1ccc(Cl)cc1CNc1ccccc1 | 35.5 µM [rising, single point] |  |
| COc1ccc(NC(=O)CN(C)CC(=O)Nc2ccc(Cl)cc2[N+](=O)[O-])cc1 | 4.47 µM [rising, full curve, poor fit] |  |
| CC(=O)NC(=S)Nc1ccc(NC(=O)COc2ccc(Cl)cc2)cc1 | 23.1 µM [falling, single point] |  |
| Cc1oc2ccc(OCc3ccc(F)cc3)cc2c1C(=O)O | 5.62 µM [rising, full curve, poor fit] |  |
| O=C(NN(c1ccccc1)c1ccccc1)c1ccc([N+](=O)[O-])o1 | 14.1 µM [falling, partial curve] |  |
| O=C(NCCc1ccccc1)C1CCN(S(=O)(=O)c2cccs2)CC1 | 3.55 µM [rising, full curve, poor fit] |  |
| O=C(NNC(=O)c1csc(N2CCOCC2)n1)c1ccc(Cl)nc1 | 25.9 µM [falling, single point] |  |
| CSc1nc(=O)n2cccc(C)c2n1 | 29.1 µM [rising, single point] |  |
| O=S(=O)(c1ccccc1)c1ncc(C(F)(F)F)cc1Cl | 5.62 µM [falling, full curve, poor fit] |  |

Retrieved by structure from the list above:

| Structure (SMILES) | AC50 [1] | AC50 [2] |
| --- | --- | --- |
| Cc1cc(/C=C2\SC(=S)NC2=O)cc(C)c1O | 0.562 µM [rising, full curve] |  |
| COC(=O)/C=C/C(=O)Nc1ccc(O)c(Cl)c1 | 23.1 µM [falling, single point] |  |
| O=C(CNC(=O)c1ccc(-c2ccccc2)cc1)Nc1cccc(CO)c1 | 29.1 µM [falling, single point] |  |
| CC(=O)Nc1ccccc1C(=O)C(=O)Nc1cccc(C(=O)N2CC(C)CC(C)C2)c1 (stereo not given) | 20 µM [falling, single point] |  |

Reference: PubChem BioAssay AID493014 (National Center for Advancing Translational Sciences (NCATS), 2011)
